These results are taken from PubChem BioAssay AID1347423 (Functional Genomics Laboratory (NCATS/FGL), 2020).

About 210 (0.4%) of roughly 52,000 sequences were called active.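 How the source made its calls: active means gene whose silencing raises cell survival under the drug, median off-target-corrected z-score across its silencing RNAs 2 or more; inactive means the rest.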 The list shows a part of the results.

The test in a line: Resistance to Poly (ADP-Ribose) Polymerase inhibitor: Gene Identification via Genome-wide siRNA Screen. To be noted: mouse BRCA2 R2336H ES cells, olaparib, CellTiter-Glo viability; active compounds read high. In short, it runs like this: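 Genome-wide siRNA screen (3 siRNAs/gene, 20 nM) in mouse ES cells carrying hypomorphic BRCA2 R2336H; olaparib 500 nM added 48 h post-transfection, CellTiter-Glo viability 72 h later. Normalized to plate-median negative control; MAD z-scores, gene median, seed-adjusted.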
GGCUGUGUUCUAAUCAGUATT against Gad2: the z-score was inactive: -1.7.

For the sequence GGACUCACAGAAAUUUCCATT against Slc36a1, the z-score is inactive: 1.38.

As for CCAGUGAUCAGUUUUAACGTT against Adamts20, the z-score was inactive: -0.0673.

Regarding GGAACCUAUCAUGAUGAAATT against Pter, the z-score was inactive: -0.224.

As to GGGUCAUUGGUAGCAACGATT against Oas1g, the z-score is inactive: -0.983.

In the case of CCAAUUUCCUUUCAGACUGTT against Cxxc4, the z-score is inactive: -0.284.

Consider GGAGAAGAUAGAAGCUGAGTT against Rad23a, for which the z-score was inactive: -0.0924.

Turning to CCUCAAGUGCGAAAACGUGTT against Sstk, the z-score is inactive: 0.645.

For the sequence GUUCCAUAUGGAGCUUGUCTT against Olfr401, the z-score was inactive: -3.03.

With GCCUGUUAAUAUGCUGUAATT against Gpr83, the z-score was inactive: -0.354.

Take GCAUGCUUCAAGCCCUAGATT against Evc2: the z-score was inactive: -1.44.

GGUGCAAUCAGCUUUCCACTT against Olfr1336: the z-score was inactive: -0.233.

With GGUUUACCAGGCACUGCUCTT against Atp2b2, the z-score was inactive: 1.54.

Consider GAGUUCAUCAGAGUGUAGCTT against Ndufs7, for which the z-score is inactive: 0.225.

For “GGUCCAUACACCUGCUCUGTT against 3732419F12”, the z-score was inactive: 0.992.

Turning to GGAGAAACAGUAAAGAAGATT against Pcbp3, the z-score was inactive: -0.00301.

With GGGAUACCAUGGGAAUAGUTT against Vps52, the z-score is inactive: 0.468.

On to GGAGAAGUGUUAUCUAUGUTT against Rxrip110, for which the z-score was inactive: -0.225.

Regarding GCGAGUUUUUGGAUGGUAGTT against Slc4a3, the z-score is inactive: 0.498.

As for “GGACUCUUACGCCUCAUCATT against Zfp422-rs1”, the z-score is inactive: 0.846.

For the sequence GUACCACGGAUCUCUUCAUTT against Galr3, the z-score is inactive: 0.452.

With GCCUCACAUUGUAGGAAUCTT against Sitpec, the z-score was inactive: 0.292.

For GGAAACUUCCCUUCCUAACTT against Snrp1c, the z-score was inactive: -2.28.

As for “GCAAACUAUAGGUGCGUUGTT against 2600005O03Rik”, the z-score is inactive: 0.341.

Take CCAAUUAGCCCAAAGAAACTT against Sec14l2: the z-score is inactive: -0.972.

As for CGCUCAGAAGUUGUAGGUGTT against Ors16, the z-score is inactive: 0.74.

As to “GGUCUAAUACUCAAUAGACTT against C030003D03Rik”, the z-score was inactive: 0.152.

With GGCUUUAAUUGUGAGAUGCTT against Il1rl1, the z-score was inactive: -0.0486.

On to “GGUGUUCCUGCUCAUAUGUTT against 5730461K03Rik”, for which the z-score was inactive: 0.0624.
